{"source": "PubChem BioAssay AID662", "about": "(National Center for Advancing Translational Sciences (NCATS), 2007)", "note": "Where “and” joins values, the source holds several entries; their conditions need not be identical. Equal entries are not always repeated. The list shows a part of the results. The main result of the screen is listed elsewhere. These columns were measured beside it and carry no call. Compounds called inactive in the main read-out are mostly missing here. Words in brackets tell the shape of the fitted curve; partial curves, single points and poor fits give uncertain potencies.", "data": [{"test": "Cell signaling CRE-BLA (Fsk stim)", "conditions": "CHO CRE-bla reporter (cAMP response element driving beta-lactamase), forskolin EC10, beta-lactamase ratio; measured here: 460 nm blue channel", "how_it_was_run": "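AC50 values, positive or negative, reflect shifts in EC10 NKH 477-induced CRE-bla reporter activity in CHO cells. Incubation lasted 3 h at 37 °C before CCF4 substrate (2 h, room temperature) and ratiometric 460/530 nm reading.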", "values": [{"compound": "Cc1cc(S(=O)(=O)NC(C)C)ccc1OCC(=O)N1CCN(Cc2ccc3c(c2)OCO3)CC1", "AC50": "0.00398 µM [falling, full curve, poor fit]"}, {"compound": "CC(=NC1CCN(Cc2ccccc2)CC1)c1c(O)n(C)c(=O)n(C)c1=O", "AC50": "15.8 µM [rising, single point]"}, {"compound": "COC(=O)[C@@H]1c2cc3c(c(O)c2[C@@H](O)C[C@]1(C)O)C(=O)c1c(O)cc2c(c1C3=O)O[C@H]1O[C@@]2(C)[C@@H](O)[C@H](N(C)C)[C@H]1O", "AC50": "5.01 µM [falling, single point]"}, {"compound": "CCn1nc(-c2cccs2)nc2c(=O)n(C)c(=O)nc1-2", "AC50": "2 µM [falling, full curve]"}, {"compound": "CCN1C[C@@]2(C)CC[C@H](O)[C@@]34[C@@H]5C[C@H]6[C@H](O)[C@@H]5[C@](O)(C[C@@H]6OC)[C@H](C[C@@H]23)[C@H]14", "AC50": "12.6 µM [falling, partial curve, poor fit]"}, {"compound": "CC(=NCc1ccco1)c1c(O)n(Cc2ccccc2)c(=O)[nH]c1=O", "AC50": "12.6 µM [rising, single point]"}, {"compound": "COc1ccc(CCNCc2ccccn2)cc1OC", "AC50": "0.00398 µM [falling, full curve, poor fit]"}, {"compound": "COc1ccc(CCn2c(O)c(C=NCc3ccc4c(c3)OCO4)c(=O)[nH]c2=O)cc1OC", "AC50": "25.1 µM [rising, single point]"}, {"compound": "COc1ccc(C[C@H]2c3cc(OC)c(OC)cc3CCN2C)cc1OC", "AC50": "12.6 µM [falling, single point]"}, {"compound": "O=C(Cn1cc(C(=O)c2ccccc2F)c2ccccc21)NCc1ccco1", "AC50": "25.1 µM [rising, single point]"}, {"compound": "C=CCn1c(O)c(C(C)=NCc2cc(OC)cc(OC)c2)c(=O)[nH]c1=O", "AC50": "10 µM [rising, partial curve]"}, {"compound": "NCCc1c[nH]c2ccc(OC(=O)C(=O)O)cc12", "AC50": "0.000794 µM [falling, full curve]"}, {"compound": "O=c1[nH]c(=O)n(Cc2ccccc2)c(O)c1C=NCCCn1ccnc1", "AC50": "0.794 µM [falling, full curve]"}, {"compound": "O=c1cccc2n1CC1CC2CN(c2ncnc3c2cnn3-c2ccccc2)C1", "note": "(stereo unspecified)", "AC50": "3.98 µM [rising, partial curve]"}, {"compound": "Nc1c(C(=O)OCC2CCCO2)c2nc3ccccc3nc2n1Cc1cccs1", "note": "(stereo unspecified)", "AC50": "0.501 µM [rising, single point]"}, {"compound": "C[N+]1(C)[C@@H]2CC[C@H]1CC(OC(=O)c1c[nH]c3ccccc13)C2", "note": "(stereo partly specified)", "AC50": "25.1 µM [falling, partial curve]"}, {"compound": "Cn1c(=O)cc(OCC(=O)N2CCN(Cc3ccc4c(c3)OCO4)CC2)c2ccccc21", "AC50": "10 µM [rising, partial curve]"}, {"compound": "O=C(CCCN1CCC2(CC1)C(=O)N(CCc1ccc(N=C=S)cc1)CN2c1ccccc1)c1ccc(F)cc1", "AC50": "5.01 µM [rising, full curve]"}, {"compound": "CC1=C(O)C(=O)[C@H]2O[C@@H]2C1=O", "AC50": "3.16 µM [falling, full curve]"}, {"compound": "COc1ccc2[nH]cc(C3=CCNCC3)c2c1", "AC50": "6.31 µM [falling, partial curve]"}, {"compound": "C(=C/c1ccccc1)/CN1CCN(CCOC(c2ccccc2)c2ccccc2)CC1", "AC50": "25.1 µM [falling, partial curve]"}, {"compound": "Fc1ccc2c(c1)nnn2C1CCN(Cc2nnnn2CCc2ccccc2)CC1", "AC50": "10 µM [rising, single point]"}, {"compound": "C=CCn1c(O)c(C(CC)=Nc2cc(OC)ccc2OC)c(=O)[nH]c1=O", "AC50": "10 µM [rising, partial curve]"}, {"compound": "CCNC(=O)[C@@H]1O[C@@H](n2cnc3c(N)ncnc32)[C@H](O)[C@H]1O", "AC50": "31.6 µM [falling, single point]"}, {"compound": "O=C(O)[C@H]1[C@H](C(=O)O)[C@H]2CC[C@@H]1O2", "AC50": "25.1 µM [rising, single point]"}, {"compound": "Clc1cccc(SC2CCNCC2)n1", "AC50": "20 µM [falling, partial curve, poor fit]"}, {"compound": "O=C(CSc1ccccc1)N1CCC2(CC1)OCCO2", "AC50": "12.6 µM [rising, single point]"}, {"compound": "O=c1ccc2[nH]cc(C3=CCNCC3)c2[nH]1", "AC50": "50.1 µM [falling, partial curve, poor fit]"}, {"compound": "Cc1cc(Cl)ccc1OC(C)C(=O)O", "note": "(stereo unspecified)", "AC50": "0.0794 µM [falling, partial curve, poor fit]"}, {"compound": "O=c1[nH]c2ccccc2n1C1CCN(CCCC(c2ccc(F)cc2)c2ccc(F)cc2)CC1", "AC50": "10 µM [falling, full curve, poor fit] and 10 µM [falling, partial curve]"}, {"compound": "CC(=O)[O][Hg][c]1ccccc1", "AC50": "3.98 µM [falling, full curve]"}, {"compound": "Clc1ccc(C(c2ccccc2Cl)C(Cl)(Cl)Cl)cc1", "note": "(stereo unspecified)", "AC50": "31.6 µM [falling, single point]"}, {"compound": "Cc1ccccc1NC1=NCC(C)S1", "note": "(stereo unspecified)", "AC50": "0.794 µM [rising, full curve]"}, {"compound": "CCn1c(C(=O)N2CCC(C(=O)N3CCC4(CC3)OCCO4)CC2)cc2sccc21", "AC50": "0.631 µM [rising, single point]"}, {"compound": "CCCCOc1ccc(CC2C(=O)N(C)C(=O)N(C)C2=O)cc1", "AC50": "0.316 µM [rising, partial curve]"}, {"compound": "CC1(C)N=C(N)N=C(N)N1c1cccc(C(=O)Nc2ccc(S(=O)(=O)F)cc2)c1", "AC50": "3.98 µM [rising, single point]"}, {"compound": "CCCCCCCCn1sccc1=O", "AC50": "7.94 µM [falling, partial curve]"}, {"compound": "CCCCCCCCCCCC[N+](C)(C)CCOc1ccccc1", "AC50": "31.6 µM [falling, single point]"}, {"compound": "CC(C)(c1ccc(OC[C@@H]2CO2)cc1)c1ccc(OC[C@H]2CO2)cc1", "AC50": "25.1 µM [falling, single point]"}, {"compound": "COC(=O)CC1=C(C(=O)OC)C2(C(=O)Nc3c(C)cccc32)C(C#N)=C(N)O1", "note": "(stereo unspecified)", "AC50": "25.1 µM [falling, single point]"}, {"compound": "COc1cccc2c1cc([N+](=O)[O-])c1c(C(=O)O)cc3c(c12)OCO3", "AC50": "31.6 µM [falling, single point]"}]}]}
